In the supplement of paper PMC5355238:
Where a name gives a salt, the structure may show the parent alone. ± gives the standard deviation of the averaged measurements. Some of the results follow. Many values rest on one well or one pass, so single values are uncertain.

system: Reh; assay: S-phase gammaH2AX median, Z-score vs plate median (drug alone); higher = more S-phase DNA damage; details: MK1775 concentration 0 nM; 10 µM; 4 h

Structure (SMILES)	S-phase gammaH2AX median (Z-score)
CN1[C@@H]2CC[C@H]1C[C@@H](OC(c1ccccc1)c1ccccc1N)C2 (some centres undefined) [Aminobenztropine]	-0.0466
C[C@@]12N[C@@H](Cc3ccccc31)c1ccccc12 [(-)-MK-801 hydrogen maleate]	-0.0568
C#CCN[C@H](C)Cc1ccccc1 [R-(-)-Desmethyldeprenyl hydrochloride]	-0.022
CCCN(CCC)[C@@H]1CCc2cccc(O)c2C1 [R-(+)-8-Hydroxy-DPAT hydrobromide]	-0.0567
CCCN1CCc2cc(O)cc3c2[C@H]1Cc1ccc(O)c(O)c1-3 [R(-)-2,10,11-Trihydroxy-N-propylnoraporphine hydrobromide]	0.148
CC1(C(=O)O)C2CCC(O2)C1(C)C(=O)O (centres undefined) [Cantharidic Acid]	0.144
CC(C)(C)NCC(O)c1ccccc1Cl (centres undefined) [Tulobuterol hydrochloride]	-0.0601
Cc1nnc2ccc(-c3cccc(C(F)(F)F)c3)nn12	-0.759
CS(=N)(=O)CC[C@H](N)C(=O)O (stereo partly drawn) [L-Methionine sulfoximine]	-0.0568
COc1cc([C@@H]2c3cc4c(cc3[C@H](O)[C@H]3COC(=O)[C@H]23)OCO4)cc(OC)c1OC [Podophyllotoxin]	-0.0213
CC[C@H]1CN2CCc3cc(OC)c(OC)cc3[C@@H]2C[C@@H]1C[C@H]1NCCc2cc(OC)c(OC)cc21 [Emetine dihydrochloride hydrate]	0.983
NCCc1c[nH]c2ccc(O)cc12 [Serotonin hydrochloride]	-0.104
Ic1ccccc1CNC1C2CCN(CC2)C1C(c1ccccc1)c1ccccc1 [L-703,606 oxalate]	-0.237
CCCN(CCC)CCc1ccc(O)c(O)c1 [Dipropyldopamine hydrobromide]	-0.0378
CC[C@@H]1/C=C/C=C/C[C@H](C)[C@H](O)[C@](C)(O)C(=O)[C@H](C)[C@@H](O)[C@H](C)C(=O)[C@H](C)[C@@H](O)[C@H](C)/C=C/C(=O)O[C@H]2[C@@H](C)[C@@H](CC1)O[C@@]1(CC[C@@H](C)[C@@H](C[C@H](C)O)O1)[C@@H]2C [Oligomycin A]	0.258
Clc1ccc(N2C[C@H]3CC[C@@H](C2)N3)nn1	0.0283
NCCc1c[nH]c2ccccc12 [Tryptamine hydrochloride]	-0.0699
CCNC(=O)[C@H]1O[C@@H](n2cnc3c(N)ncnc32)[C@H](O)[C@@H]1O [5'-N-Ethylcarboxamidoadenosine]	-0.0882
Cc1cccc(C)c1NC1=NCCCS1 [Xylazine hydrochloride]	-0.3
CCCN1CCC[C@@H](c2cccc(O)c2)C1 [S(-)-3PPP hydrochloride]	0.0922
Cc1ccc(S(=O)(=O)N[C@@H](CCCCN)C(=O)CCl)cc1 [Na-p-Tosyl-L-lysine chloromethyl ketone hydrochloride]	0.147
O=C(Oc1ccc([N+](=O)[O-])cc1)N1CCC(C(O)(c2ccc3c(c2)OCO3)c2ccc3c(c2)OCO3)CC1	-0.0677
NC(=O)CN1CCCC1=O [Piracetam]	0.0378
NCc1cc(O)no1 [Muscimol hydrobromide]	0.0598
Oc1ccc2c3c1O[C@H]1c4oc5ccccc5c4C[C@@]4(O)[C@@H](C2)N(CC2CC2)CC[C@]314 [Naltriben methanesulfonate]	0.0142

Retrieved one by one from the list above (four):
Structure (SMILES)	S-phase gammaH2AX median (Z-score)
C[C@@]12N[C@@H](Cc3ccccc31)c1ccccc12 [(-)-MK-801 hydrogen maleate]	-0.0568
NC(=O)CN1CCCC1=O [Piracetam]	0.0378
CCCN(CCC)[C@@H]1CCc2cccc(O)c2C1 [R-(+)-8-Hydroxy-DPAT hydrobromide]	-0.0567
CCCN(CCC)CCc1ccc(O)c(O)c1 [Dipropyldopamine hydrobromide]	-0.0378

(list continues)

Structure (SMILES)	S-phase gammaH2AX median (Z-score)
C=CCc1ccccc1OCC(O)CNC1(C)CCC(C(C)(C)NC(=O)CBr)CC1 (centres undefined) [Bromoacetyl alprenolol menthane]	-0.272
Cc1c2ccncc2c(C)c2c1[nH]c1ccccc12 [Ellipticine]	3.9
CC(C)NP(=O)(NC(C)C)OP(=O)(NC(C)C)NC(C)C [Tetraisopropyl pyrophosphoramide]	-0.214
CC(=O)NBr [N-Bromoacetamide]	-0.0932
CCCN1CCc2cccc3c2[C@H]1Cc1ccc(O)c(O)c1-3 [R(-)-Propylnorapomorphine hydrochloride]	-0.0063
CCCN(CCC)C1CCc2cccc(O)c2C1 (centres undefined) [(?)-8-Hydroxy-DPAT hydrobromide]	0.0283
CNc1ccc2oc(C[C@H]3O[C@@]4(CC[C@H]3C)O[C@H]([C@H](C)C(=O)c3ccc[nH]3)[C@H](C)C[C@H]4C)nc2c1C(=O)O [Calcimycin]	0.107
COc1ccc2c(c[n+](C)c3c4cc5c(cc4ccc23)OCO5)c1OC [Chelerythrine chloride]	4.14
c1ccc2c(c1)[I+]c1ccccc1-2 [Diphenyleneiodonium chloride]	0.378
CCn1cc(C(=O)O)c(=O)c2cc3c(cc21)OCO3 [Oxolinic acid]	-0.0473
C[N+]1(C)[C@@H]2C[C@@H](OC(=O)[C@H](CO)c3ccccc3)C[C@H]1[C@@H]1O[C@@H]12 [(-)-Scopolamine methyl bromide]	-0.574
NCCc1ccc(O)cc1 [4-Hydroxyphenethylamine hydrochloride]	0.28
CN(C(=O)Cc1ccc(Cl)c(Cl)c1)C(CN1CCCC1)c1cccc(OCC(=O)O)c1 (centres undefined) [ICI 204,448 hydrochloride]	0.154
NC(=O)COc1c(F)cc(SCCNS(=O)(=O)c2ccccc2)cc1F	-0.128
CCCN1CCC[C@H](c2cccc(O)c2)C1 [R(+)-3PPP hydrochloride]	-0.0071
C[C@H](Cc1ccc2c(c1)OC(C(=O)O)(C(=O)O)O2)NC[C@H](O)c1cccc(Cl)c1	0.113
CCC1(c2ccc(N)cc2)CCC(=O)NC1=O (centres undefined) [(?)-p-Aminoglutethimide]	-0.00194
CCC1(c2ccc(N)cc2)CCC(=O)NC1=O (centres undefined) [Aminoglutethimide (Cytadren)]	0.11
C[N+]1(C)CCN(c2ccccc2)CC1 [1,1-Dimethyl-4-phenyl-piperazinium iodide]	-0.142
C[C@@H](N)Cc1cnc[nH]1 [Histamine, R(-)-alpha-methyl-, dihydrochloride]	0
Clc1cc(I)cc(Cl)c1NC1=NCCN1 [p-Iodoclonidine hydrochloride]	0.154
C[C@@H]1O[C@@H](O[C@H]2C[C@@H](O)[C@]3(CO)[C@H]4[C@H](O)C[C@]5(C)[C@@H](C6=CC(=O)OC6)CC[C@]5(O)[C@@H]4CC[C@]3(O)C2)[C@H](O)[C@H](O)[C@H]1O [Ouabain]	0.0142
NCCCP(=O)(O)O [3-Aminopropylphosphonic acid]	-0.0718
CNCCc1c[nH]c2ccc(O)cc12 [N-omega-Methyl-5-hydroxytryptamine oxalate salt]	0.161
COc1ccc(Cc2nccc3cc(OC)c(OC)cc23)cc1OC [Papaverine hydrochloride]	-0.026

Structure (SMILES)	S-phase gammaH2AX median (Z-score)
NNC(=O)c1ccc(O)cc1 [4-Hydroxybenzhydrazide]	0.107
COC(=O)C1=CCCN(C)C1 [Arecoline hydrobromide]	-0.0175
C=C(C)[C@H]1Cc2c(ccc3c2O[C@@H]2COc4cc(OC)c(OC)cc4[C@@H]2C3=O)O1 [Rotenone]	0
Fc1ccc(C(OCCN2CCN(CCCc3ccccc3)CC2)c2ccc(F)cc2)cc1	-0.265
N[C@@H](CCl)C(=O)O [beta-Chloro-L-alanine hydrochloride]	0.0408
NNC(N)=O [Semicarbazide hydrochloride]	0.0868
O=C[C@H](Cl)[C@@H](O)[C@H](O)[C@H](O)CO [2-Chloro-2-deoxy-D-glucose]	0.0505
CCCN(CCC)C1CCc2ccc(O)cc2C1 (centres undefined) [(?)-7-Hydroxy-DPAT hydrobromide]	-0.0504
CCCN(CCC)C1CCc2ccc(O)cc2C1 (stereo not drawn) [R-(+)-7-Hydroxy-DPAT hydrobromide]	0.148
Oc1cc2c(cc1O)[C@H]1c3ccccc3CN[C@@H]1CC2 (racemic) [Dihydrexidine hydrochloride]	0.224
N[C@H](CCCCCP(=O)(O)O)C(=O)O [D(-)-2-Amino-7-phosphonoheptanoic acid]	-0.0874
CC(=O)Nc1ccc(OC[C@](C)(O)C(=O)Nc2ccc([N+](=O)[O-])c(C(F)(F)F)c2)cc1 [Andarine (GTX-007)]	0.0313
CC(N)Cc1c[nH]c2ccc(O)cc12 (stereo not drawn) [alpha-Methyl-5-hydroxytryptamine maleate]	0.237
CN(N=O)c1cc(O)ccc1O [Dephostatin]	-0.0063
O=C1CCCN1CC#CCN1CCCC1 [Oxotremorine sesquifumarate salt]	0.0142
C[N+](C)(C)CC#CCOC(=O)Nc1cccc(Cl)c1	-0.0311
CN1C[C@@H](NS(=O)(=O)N(C)C)C[C@@H]2c3cccc4c3c(cn4C)C[C@H]21 [Mesulergine hydrochloride]	0.0686
Oc1ccc2c3c1O[C@H]1c4[nH]c5c(c4C[C@@]4(O)[C@@H](C2)N(CC2CC2)CC[C@]314)C[C@@]1(O)[C@H]2Cc3ccc(O)c4c3[C@@]1(CCN2CC1CC1)[C@H]5O4 [nor-Binaltorphimine dihydrochloride]	-0.0568
CCCCc1ccc(C(=O)O)nc1 [Fusaric acid]	-0.22
CCCN1C[C@H](CSC)C[C@@H]2c3cccc4[nH]cc(c34)C[C@H]21 [Pergolide methanesulfonate]	0.333
N.N.[Cl][Pt][Cl] [Cisplatin]	0.13 ± 0.11
COc1ccc2[nH]cc(CCN)c2c1 [O-Methylserotonin hydrochloride]	-0.026
Cc1ncc(CNC(=O)N(CCCl)N=O)c(N)n1 [Nimustine hydrochloride]	-0.0355
C#C[C@]1(O)CC[C@H]2[C@@H]3CCC4=Cc5nc6nc7ccccc7n6cc5C[C@]4(C)[C@H]3CC[C@@]21C	0.0601
